Values from PubChem BioAssay AID504804 (Drosophila RNAi Screening Center, 2011)
The deposit covers about 19,000 reagents; below is an unselected part of those with a known target gene and a result. Of all reagents, 47 (0.25%) are marked active. 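Signals are raw, not normalised; exact z-scores behind calls not deposited; actives needed confirmation, so some wells reaching 2 SD are inactive.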 Reagents against one gene are numbered here. Names joined by + are all predicted targets of the reagent.

Test: 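dsRNAs that improve Kc cell survival under doxorubicin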 (primary screen)
Cell system: Drosophila Kc cells
Reagents: long dsRNA against Drosophila genes, 0.5 µg dsRNA per well
Duration: 96 h (48 h knock-down, then 48 h drug)
Treatment: doxorubicin 5 µg/ml for 48 h, added 48 h after dsRNA
Measured: 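Viability measured as cellular ATP by luminescence after 48 h knock-down then 48 h doxorubicin at 5 µg/ml; unnormalised plate counts for each replicate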
Scale: raw ATP luminescence: higher = more viable cells, protection from doxorubicin
Hit rule: 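z-score of 2 or more over plate mean in both duplicates, retained only when retests and separate dsRNAs confirm the protection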

no.	target gene	reagent	SD above plate mean	raw ATP luminescence, replicate 1	raw ATP luminescence, replicate 2	Outcome
1	CG10472	1		43587	42543	inactive
2	CG1986	1		2.90e5	2.82e5	inactive
3	RpL3 (Ribosomal protein L3)	1		35093	31203	inactive
4	Tsp42El (Tetraspanin 42El)	1		70307	50977	inactive
5	E(spl)m5-HLH (Enhancer of split m5, helix-loop-helix)	1		60020	65860	inactive
6	CG13359	1		42500	49940	inactive
7	CG15482	1		49720	56603	inactive
8	Lkb1 (Lkb1 kinase)	1		42683	24960	inactive
9	CG11698	1		1.75e5	2.19e5	inactive
10	RhoGDI	1		21367	18640	inactive
11	CG15545	1		52630	32960	inactive
12	MFS18 (Major Facilitator Superfamily Transporter 18)	1	at least 2 SD above plate mean	1.51e5	1.09e5	active
13	cert (ceramide transfer protein)	1		42490	46587	inactive
14	CG8492	1		78093	79430	inactive
15	CG3257	1		66240	55923	inactive
16	GNBP3 (Gram-negative bacteria binding protein 3)	1		65117	63560	inactive
17	Trm1 (tRNA methyltransferase 1)	1		98803	64333	inactive
18	Cisd2 (CDGSH iron sulfur domain 2)	1		35260	32570	inactive
19	TTLL5 (Tubulin tyrosine ligase-like 5)	1		33840	46550	inactive
20	eEF2 (eukaryotic translation elongation factor 2)	1		37720	31007	inactive
21	GstZ1 (Glutathione S transferase Z1)	1		62837	28503	inactive
22	CG11396	1		80947	60263	inactive
23	Sfmbt (Scm-related gene containing four mbt domains)	1		1.10e5	66597	inactive
24	HmgZ (HMG protein Z)	1		1.15e5	1.20e5	inactive
25	HmgZ (HMG protein Z)	2		59680	58543	inactive
26	Ugt36E1 (UDP-glycosyltransferase family 36 member E1)	1		65793	54963	inactive
27	CG14270	1		46010	39030	inactive
28	Cp7Fc (Chorion protein c at 7F)	1		46870	40870	inactive
29	Tim17a2	1		50920	52983	inactive
30	CG13042	1		45967	36853	inactive
31	Panx (Panoramix)	1		52243	60837	inactive
32	CG42458	1		23737	25603	inactive
33	CG10863	1		61640	44033	inactive
34	pch2 (pachytene checkpoint 2)	1		65290	54080	inactive
35	Npc2b (Niemann-Pick type C-2b)	1		1.10e5	76240	inactive
36	CG13056	1		70787	55917	inactive
37	CG15286	1		66880	77743	inactive
38	ms(3)76Cc (male sterile (3) 76Cc)	1		73523	67330	inactive
39	c(2)M (crossover suppressor on 2 of Manheim)	1		1.11e5	67370	inactive
40	CG33155 + mRpL53	1		85270	1.14e5	inactive
41	stmA (stambha A)	1		84940	90527	inactive
42	stmA (stambha A)	2		64037	65533	inactive
43	ncm (nucampholin)	1		1.20e5	74340	inactive
44	CG33230	1		63213	67787	inactive
45	spir (spire)	1		49937	62020	inactive
46	Sh (Shaker)	1		33397	42990	inactive
47	Sh (Shaker)	2		2.49e5	2.53e5	inactive
48	Sh (Shaker)	3		3.53e5	3.30e5	inactive
49	Sh (Shaker)	4		3.83e5	3.72e5	inactive
50	Tsp42Ec (Tetraspanin 42Ec)	1		36840	62190	inactive
51	CG13978	1		54430	58900	inactive
52	CG14767	1		52257	49553	inactive
53	mbl (muscleblind)	1		1.24e5	1.03e5	inactive
54	mbl (muscleblind)	2		50410	79820	inactive
55	CG2444	1		3.91e5	4.07e5	inactive
56	superdeath (Suppressor of ER stress-induced death)	1		1.72e5	2.16e5	inactive
57	Vm32E (Vitelline membrane 32E)	1		32987	60437	inactive
